# From patent US20240317746A1, “CRYSTALLINE FORMS OF AN AZETIDINE PARP1 INHIBITOR” (XinThera, Inc., priority 2023, published 2024)
# Entries after “also recorded” stand apart in the source; their conditions may differ.
# Legend:
# [1] = Salt screening and re-preparation of target forms; details: RT
# Procedure: Based on the results of pKa and estimated solubility, salts were prepared with 11 acids in three solvent systems of EtOH, THF and acetone/water (19/1, v/v).
# Then 1.1 eq. of acid was added into the suspension at RT for reactive crystallization (liquid acid was diluted in corresponding solvent and added into the suspension), as well as additional 2.2 eq. of HCl. 0.5 mL more solvent was added to dilute several thick systems at 4 h (highlighted as * in the summary table). If clear solution or oil was obtained, various crystallization methods were used to induce precipitation. Solids were collected by filtration or centrifugation, and dried under vacuum at 40° C. for ˜4 h. The experimental details and characterization results are presented in the following parts.
# Detailed experimental procedures are described in Table 32.
# [2] = Polymorph screening (slurry conversion, cooling, evaporation, anti-solvent, cyclic heating-cooling, salt break)
# Procedure: Form I was obtained from most polymorph screening experiments. […]
# Cyclic heating-cooling experiments were carried out in Crystal 16 Parallel Crystallizer. About 20 mg of Compound 1 (starting material) was added into 1 mL solvents, and a heating-cooling program was performed: • 1. Equilibrated first at 20° C., and heated to 75 or 100° C. at 0.2° C./min (the elevated temperature is set according to boiling point of solvent). • 2. Held at 75 or 100° C. for 1 h. • 3. Cooled to 20° C. at 0.2° C./min and hold for 1 h. • 4. Repeated the above procedures once.
# Turbidimeter from Crystal 16 recorded if solids were completely dissolved during heating. Form I was obtained in most solvent systems. […]
smiles,measurement,setting,value
"C[C@@H]1[C@@H](Oc2ccc(C(=O)NC3CC3)nc2)CN1Cc1cnc2cc(Cl)c(=O)[nH]c2c1 [Freebase Form I, 5-(((2R,3S)-1-((7-chloro-6-oxo-5,6-dihydro-1,5-naphthyridin-3-yl)methyl)-2-methylazetidin-3-yl)oxy)-N-cyclopropylpicolinamide]",Salt screening result (solid form),"[1]; Citric acid 1.1 eq., Acetone/Water (19/1)",Citrate Form I
same,Salt screening result (solid form),"[1]; Citric acid 1.1 eq., EtOH",FB Form I; also recorded: Freebase Form I
same,Salt screening result (solid form),"[1]; Citric acid 1.1 eq., THF",FB Form I; also recorded: Freebase Form I
same,Salt screening result (solid form),"[1]; Fumaric acid 1.1 eq., Acetone/Water (19/1)",FB Form I; also recorded: Freebase Form I
same,Salt screening result (solid form),"[1]; Fumaric acid 1.1 eq., EtOH",FB Form I; also recorded: Freebase Form I
same,Salt screening result (solid form),"[1]; Fumaric acid 1.1 eq., THF",FB Form I; also recorded: Freebase Form I
same,Salt screening result (solid form),"[1]; H2SO4 1.1 eq., THF",Amorphous
same,Salt screening result (solid form),"[1]; H3PO4 1.1 eq., Acetone/Water (19/1)",Amorphous *; also recorded: Amorphous
same,Salt screening result (solid form),"[1]; H3PO4 1.1 eq., EtOH",Amorphous *; also recorded: Amorphous
same,Salt screening result (solid form),"[1]; H3PO4 1.1 eq., THF",Amorphous *; also recorded: Amorphous
same,Salt screening result (solid form),"[1]; L-Malic acid 1.1 eq., Acetone/Water (19/1)",Malate Form I
same,Salt screening result (solid form),"[1]; L-Malic acid 1.1 eq., EtOH",FB Form I; also recorded: Freebase Form I
same,Salt screening result (solid form),"[1]; L-Malic acid 1.1 eq., THF",FB Form I; also recorded: Freebase Form I
same,Salt screening result (solid form),"[1]; Maleic acid 1.1 eq., Acetone/Water (19/1)",Maleate Form I
same,Salt screening result (solid form),"[1]; PTSA 1.1 eq., Acetone/Water (19/1)",Tosylate Form I
same,Salt screening result (solid form),"[1]; PTSA 1.1 eq., EtOH",Amorphous
same,Salt screening result (solid form),"[1]; PTSA 1.1 eq., THF",Amorphous
same,Salt screening result (solid form),"[1]; Succinic acid 1.1 eq., Acetone/Water (19/1)",FB Form I; also recorded: Freebase Form I
same,Salt screening result (solid form),"[1]; Succinic acid 1.1 eq., EtOH",FB Form I; also recorded: Freebase Form I
same,Salt screening result (solid form),"[1]; Succinic acid 1.1 eq., THF",FB Form I; also recorded: Freebase Form I
same,Salt screening result (solid form),"[1]; no acid, Acetone/Water (19/1)",FB Form I
same,Salt screening result (solid form),"[1]; no acid, EtOH",FB Form I
same,Salt screening result (solid form),"[1]; no acid, THF",FB Form I
"C[C@@H]1[C@@H](Oc2ccc(C(=O)NC3CC3)nc2)CN1Cc1cnc2cc(Cl)c(=O)[nH]c2c1 [Compound 1, 5-(((2R,3S)-1-((7-chloro-6-oxo-5,6-dihydro-1,5-naphthyridin-3-yl)methyl)-2-methylazetidin-3-yl)oxy)-N-cyclopropylpicolinamide]",Result of cyclic heating-cooling (solid form),"[2]; 2-MeTHF, 75° C.",Form I
same,Result of cyclic heating-cooling (solid form),"[2]; ACN/Water (9/1), 75° C.",Form I
same,Result of cyclic heating-cooling (solid form),"[2]; DMAc/Toluene (1/2), 100° C.",Solution
same,Result of cyclic heating-cooling (solid form),"[2]; EtOH, 75° C.",Form I
same,Result of cyclic heating-cooling (solid form),"[2]; MEK, 75° C.",Form I
same,Result of cyclic heating-cooling (solid form),"[2]; MIBK, 100° C.",Form I
same,Result of cyclic heating-cooling (solid form),"[2]; n-Butanol/Anisole (1/1), 100° C.",Form I
